Data: patent US20040038338A1, “Influence of LRP cytoplasmic domain on Abeta production” (priority 2001, published 2004)
No constants are given. Whether binding was seen depends on the method and setting. Some binding calls cover weakened binding; strength is not graded here.

Amino acid sequences for entries named in this document (tags omitted). Residues count along the entry.
UniProt Q07954, residues 4445-4544: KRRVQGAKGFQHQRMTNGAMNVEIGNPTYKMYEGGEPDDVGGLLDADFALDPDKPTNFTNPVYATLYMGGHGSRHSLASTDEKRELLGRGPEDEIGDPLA

Target: T1, Fe65 (UniProt O00213)
T1 sequence (looked up): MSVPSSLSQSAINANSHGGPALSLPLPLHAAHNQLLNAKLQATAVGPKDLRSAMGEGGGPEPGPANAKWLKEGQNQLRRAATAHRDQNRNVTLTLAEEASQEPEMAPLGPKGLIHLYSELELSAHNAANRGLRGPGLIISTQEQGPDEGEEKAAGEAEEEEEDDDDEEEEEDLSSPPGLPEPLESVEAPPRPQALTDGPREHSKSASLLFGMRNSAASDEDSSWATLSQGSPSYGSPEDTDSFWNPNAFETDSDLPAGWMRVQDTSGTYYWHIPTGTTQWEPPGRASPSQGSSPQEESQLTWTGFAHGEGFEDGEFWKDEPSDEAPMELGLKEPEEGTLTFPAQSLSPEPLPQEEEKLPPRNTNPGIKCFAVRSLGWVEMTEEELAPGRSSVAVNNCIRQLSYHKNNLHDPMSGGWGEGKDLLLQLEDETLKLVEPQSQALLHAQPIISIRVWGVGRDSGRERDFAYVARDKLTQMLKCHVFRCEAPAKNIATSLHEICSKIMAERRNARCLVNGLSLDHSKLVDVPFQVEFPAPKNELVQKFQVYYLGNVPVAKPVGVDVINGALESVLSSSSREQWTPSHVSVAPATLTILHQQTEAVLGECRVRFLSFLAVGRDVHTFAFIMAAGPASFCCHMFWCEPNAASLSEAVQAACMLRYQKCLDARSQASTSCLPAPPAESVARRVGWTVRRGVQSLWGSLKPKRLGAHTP
Assay: GST pull down of in vitro translated Fe65; wild type tail is the reference

binding: binds
Substance: GST fusion protein encoding the last 100 amino acids of LRP (entire cytoplasmic tail), wild type (from UniProt Q07954 4445-4544)
